This is one part of the list. Small differences around the control level are noise.

Protein sequences, listed by entry. Tags and fused reporters are not part of them. Lines headed by an entry give the natural chain unless they say otherwise; changes in a name come on top.
UniProt Q14126: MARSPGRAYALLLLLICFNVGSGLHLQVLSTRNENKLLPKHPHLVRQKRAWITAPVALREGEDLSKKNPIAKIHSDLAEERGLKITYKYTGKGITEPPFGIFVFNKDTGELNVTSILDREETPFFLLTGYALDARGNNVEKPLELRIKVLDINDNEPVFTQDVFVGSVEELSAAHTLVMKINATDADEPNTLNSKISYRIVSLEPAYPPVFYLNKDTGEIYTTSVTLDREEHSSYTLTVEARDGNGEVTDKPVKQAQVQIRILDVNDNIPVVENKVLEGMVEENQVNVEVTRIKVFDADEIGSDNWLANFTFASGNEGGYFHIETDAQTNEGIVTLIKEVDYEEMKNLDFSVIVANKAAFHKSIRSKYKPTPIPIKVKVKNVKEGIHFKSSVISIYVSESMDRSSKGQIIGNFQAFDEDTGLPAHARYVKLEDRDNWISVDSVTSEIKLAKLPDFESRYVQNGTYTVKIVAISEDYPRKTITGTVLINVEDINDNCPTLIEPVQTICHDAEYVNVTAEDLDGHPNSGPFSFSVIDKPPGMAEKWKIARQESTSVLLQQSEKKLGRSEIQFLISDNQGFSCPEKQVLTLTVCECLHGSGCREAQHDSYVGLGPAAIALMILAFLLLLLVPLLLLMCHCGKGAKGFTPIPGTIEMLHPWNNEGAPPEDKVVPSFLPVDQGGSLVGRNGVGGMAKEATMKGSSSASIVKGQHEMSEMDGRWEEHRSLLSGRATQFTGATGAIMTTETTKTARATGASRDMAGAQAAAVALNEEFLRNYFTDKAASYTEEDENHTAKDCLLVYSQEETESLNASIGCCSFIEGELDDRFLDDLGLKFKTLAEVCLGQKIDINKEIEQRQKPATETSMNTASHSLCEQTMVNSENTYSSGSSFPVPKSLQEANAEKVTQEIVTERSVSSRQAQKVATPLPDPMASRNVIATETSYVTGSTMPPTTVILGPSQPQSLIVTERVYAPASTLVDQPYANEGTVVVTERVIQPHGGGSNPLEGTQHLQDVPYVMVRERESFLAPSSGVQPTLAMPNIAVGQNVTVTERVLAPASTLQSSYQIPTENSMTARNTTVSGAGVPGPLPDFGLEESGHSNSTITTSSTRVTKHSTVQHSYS
UniProt Q14161: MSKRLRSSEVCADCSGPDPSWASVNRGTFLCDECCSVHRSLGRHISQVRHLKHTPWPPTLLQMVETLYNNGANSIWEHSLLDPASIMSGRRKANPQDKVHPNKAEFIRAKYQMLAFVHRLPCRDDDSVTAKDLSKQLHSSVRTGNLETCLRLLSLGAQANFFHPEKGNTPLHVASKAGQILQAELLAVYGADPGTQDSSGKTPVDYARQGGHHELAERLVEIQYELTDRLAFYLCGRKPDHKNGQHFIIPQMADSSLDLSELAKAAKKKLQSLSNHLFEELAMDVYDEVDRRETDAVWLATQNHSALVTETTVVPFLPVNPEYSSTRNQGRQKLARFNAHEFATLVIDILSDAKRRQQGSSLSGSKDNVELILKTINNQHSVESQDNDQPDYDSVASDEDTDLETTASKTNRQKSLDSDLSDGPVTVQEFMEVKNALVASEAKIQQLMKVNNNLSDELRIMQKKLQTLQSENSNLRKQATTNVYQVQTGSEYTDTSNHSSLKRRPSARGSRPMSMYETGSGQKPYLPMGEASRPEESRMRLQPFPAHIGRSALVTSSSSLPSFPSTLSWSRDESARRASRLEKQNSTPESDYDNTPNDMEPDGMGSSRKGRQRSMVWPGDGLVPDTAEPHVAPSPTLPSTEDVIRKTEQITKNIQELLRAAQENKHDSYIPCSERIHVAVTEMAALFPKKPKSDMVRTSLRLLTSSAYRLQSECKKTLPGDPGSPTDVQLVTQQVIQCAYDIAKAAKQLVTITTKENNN
UniProt Q13155: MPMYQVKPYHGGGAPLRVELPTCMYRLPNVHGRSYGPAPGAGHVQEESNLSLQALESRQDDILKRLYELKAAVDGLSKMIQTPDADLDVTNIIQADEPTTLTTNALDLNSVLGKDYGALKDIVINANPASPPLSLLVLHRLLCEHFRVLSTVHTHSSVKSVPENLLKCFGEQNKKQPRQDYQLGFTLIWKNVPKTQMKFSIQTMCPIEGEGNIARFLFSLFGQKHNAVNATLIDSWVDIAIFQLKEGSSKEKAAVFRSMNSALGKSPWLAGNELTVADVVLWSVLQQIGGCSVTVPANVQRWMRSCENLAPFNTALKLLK
UniProt Q15004: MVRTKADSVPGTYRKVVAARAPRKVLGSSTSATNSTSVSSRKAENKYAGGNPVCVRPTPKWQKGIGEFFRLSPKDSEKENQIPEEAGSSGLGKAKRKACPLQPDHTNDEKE
UniProt Q14146: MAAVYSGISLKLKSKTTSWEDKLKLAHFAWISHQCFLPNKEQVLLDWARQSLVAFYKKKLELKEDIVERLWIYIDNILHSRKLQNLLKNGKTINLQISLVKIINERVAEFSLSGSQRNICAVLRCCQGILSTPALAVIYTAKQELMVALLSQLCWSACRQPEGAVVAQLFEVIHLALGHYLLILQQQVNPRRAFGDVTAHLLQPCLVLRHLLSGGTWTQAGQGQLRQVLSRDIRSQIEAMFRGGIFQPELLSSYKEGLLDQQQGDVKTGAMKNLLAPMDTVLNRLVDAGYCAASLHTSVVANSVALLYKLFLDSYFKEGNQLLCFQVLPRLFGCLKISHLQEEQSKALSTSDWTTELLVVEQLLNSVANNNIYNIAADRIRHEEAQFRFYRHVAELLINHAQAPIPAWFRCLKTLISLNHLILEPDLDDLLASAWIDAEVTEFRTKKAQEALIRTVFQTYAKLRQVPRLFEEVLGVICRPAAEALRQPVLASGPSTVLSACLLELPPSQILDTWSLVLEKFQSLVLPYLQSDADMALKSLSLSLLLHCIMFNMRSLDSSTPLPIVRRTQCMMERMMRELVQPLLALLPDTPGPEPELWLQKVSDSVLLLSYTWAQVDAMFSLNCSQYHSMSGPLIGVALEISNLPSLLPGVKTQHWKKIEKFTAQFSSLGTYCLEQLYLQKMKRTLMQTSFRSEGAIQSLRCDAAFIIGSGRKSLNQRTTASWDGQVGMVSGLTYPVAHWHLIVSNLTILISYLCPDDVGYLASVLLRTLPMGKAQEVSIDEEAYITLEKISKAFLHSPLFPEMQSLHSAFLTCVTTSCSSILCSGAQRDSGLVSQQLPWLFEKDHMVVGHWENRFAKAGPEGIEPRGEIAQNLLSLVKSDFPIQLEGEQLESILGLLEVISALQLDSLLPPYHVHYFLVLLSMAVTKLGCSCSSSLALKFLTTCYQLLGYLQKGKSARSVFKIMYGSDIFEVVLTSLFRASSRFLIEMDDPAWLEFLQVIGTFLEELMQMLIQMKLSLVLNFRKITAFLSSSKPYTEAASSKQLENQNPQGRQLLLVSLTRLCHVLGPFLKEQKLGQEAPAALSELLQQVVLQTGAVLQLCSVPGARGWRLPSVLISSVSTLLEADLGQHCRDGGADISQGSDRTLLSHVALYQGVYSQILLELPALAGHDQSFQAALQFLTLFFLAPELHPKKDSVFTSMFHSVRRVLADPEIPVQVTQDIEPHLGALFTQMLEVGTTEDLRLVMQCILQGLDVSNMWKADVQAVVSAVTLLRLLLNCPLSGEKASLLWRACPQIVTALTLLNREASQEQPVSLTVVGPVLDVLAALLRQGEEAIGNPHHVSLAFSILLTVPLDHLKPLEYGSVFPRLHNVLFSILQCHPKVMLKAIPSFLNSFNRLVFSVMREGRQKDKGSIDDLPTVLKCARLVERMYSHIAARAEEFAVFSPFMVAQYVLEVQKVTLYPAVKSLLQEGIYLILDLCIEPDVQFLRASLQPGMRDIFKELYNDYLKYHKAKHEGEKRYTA
UniProt Q13277: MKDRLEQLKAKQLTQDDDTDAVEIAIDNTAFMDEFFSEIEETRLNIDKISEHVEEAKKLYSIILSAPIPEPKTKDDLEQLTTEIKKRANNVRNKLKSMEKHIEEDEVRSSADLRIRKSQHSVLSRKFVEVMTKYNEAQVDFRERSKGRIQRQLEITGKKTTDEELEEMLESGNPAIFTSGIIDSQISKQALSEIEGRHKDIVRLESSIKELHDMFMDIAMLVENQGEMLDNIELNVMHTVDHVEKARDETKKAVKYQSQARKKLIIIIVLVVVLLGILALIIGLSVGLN
UniProt Q14767: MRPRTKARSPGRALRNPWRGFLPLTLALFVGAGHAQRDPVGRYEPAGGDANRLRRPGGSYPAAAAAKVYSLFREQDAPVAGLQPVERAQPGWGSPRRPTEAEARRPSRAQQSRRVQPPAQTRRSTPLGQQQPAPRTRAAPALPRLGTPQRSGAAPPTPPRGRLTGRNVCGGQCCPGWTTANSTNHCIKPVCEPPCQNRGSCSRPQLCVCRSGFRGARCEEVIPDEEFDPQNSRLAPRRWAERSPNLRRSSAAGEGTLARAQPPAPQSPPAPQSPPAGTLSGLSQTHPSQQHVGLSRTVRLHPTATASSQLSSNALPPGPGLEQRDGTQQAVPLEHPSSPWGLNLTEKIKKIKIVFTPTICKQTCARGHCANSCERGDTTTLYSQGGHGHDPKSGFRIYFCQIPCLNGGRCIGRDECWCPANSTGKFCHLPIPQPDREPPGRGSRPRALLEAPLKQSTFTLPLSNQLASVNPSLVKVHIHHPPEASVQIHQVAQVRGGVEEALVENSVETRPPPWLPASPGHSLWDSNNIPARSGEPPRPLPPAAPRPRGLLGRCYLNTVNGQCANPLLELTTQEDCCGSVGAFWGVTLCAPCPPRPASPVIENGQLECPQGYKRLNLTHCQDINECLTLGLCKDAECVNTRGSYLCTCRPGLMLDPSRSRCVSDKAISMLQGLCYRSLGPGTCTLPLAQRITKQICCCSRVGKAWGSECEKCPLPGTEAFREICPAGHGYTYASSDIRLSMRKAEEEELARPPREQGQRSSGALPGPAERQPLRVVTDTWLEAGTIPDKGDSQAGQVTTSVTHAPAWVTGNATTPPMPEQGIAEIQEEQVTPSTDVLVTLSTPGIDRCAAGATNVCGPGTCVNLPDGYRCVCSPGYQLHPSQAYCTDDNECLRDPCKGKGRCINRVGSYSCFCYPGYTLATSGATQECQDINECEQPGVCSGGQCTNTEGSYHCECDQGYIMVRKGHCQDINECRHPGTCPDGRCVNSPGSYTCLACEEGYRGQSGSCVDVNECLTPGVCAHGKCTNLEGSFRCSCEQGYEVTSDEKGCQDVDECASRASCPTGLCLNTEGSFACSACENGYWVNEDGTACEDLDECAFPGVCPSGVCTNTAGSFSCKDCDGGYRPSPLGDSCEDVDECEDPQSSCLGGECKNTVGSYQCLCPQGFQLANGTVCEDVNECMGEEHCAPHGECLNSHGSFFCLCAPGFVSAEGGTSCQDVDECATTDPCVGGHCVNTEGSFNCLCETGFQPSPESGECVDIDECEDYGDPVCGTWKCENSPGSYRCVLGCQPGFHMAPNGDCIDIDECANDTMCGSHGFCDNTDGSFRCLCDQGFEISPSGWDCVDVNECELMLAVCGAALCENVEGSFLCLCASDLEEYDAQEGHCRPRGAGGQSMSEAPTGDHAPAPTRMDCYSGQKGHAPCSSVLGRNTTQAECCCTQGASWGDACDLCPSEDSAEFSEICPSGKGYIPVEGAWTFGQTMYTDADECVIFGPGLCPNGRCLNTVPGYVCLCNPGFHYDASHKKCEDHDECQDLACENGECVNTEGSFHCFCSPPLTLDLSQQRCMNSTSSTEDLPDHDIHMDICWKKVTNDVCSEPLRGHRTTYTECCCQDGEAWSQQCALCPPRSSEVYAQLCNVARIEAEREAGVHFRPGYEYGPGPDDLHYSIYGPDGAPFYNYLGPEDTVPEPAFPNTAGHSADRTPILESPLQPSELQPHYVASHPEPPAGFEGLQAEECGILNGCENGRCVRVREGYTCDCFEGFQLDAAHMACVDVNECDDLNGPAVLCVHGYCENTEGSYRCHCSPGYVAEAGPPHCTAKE
UniProt Q13637: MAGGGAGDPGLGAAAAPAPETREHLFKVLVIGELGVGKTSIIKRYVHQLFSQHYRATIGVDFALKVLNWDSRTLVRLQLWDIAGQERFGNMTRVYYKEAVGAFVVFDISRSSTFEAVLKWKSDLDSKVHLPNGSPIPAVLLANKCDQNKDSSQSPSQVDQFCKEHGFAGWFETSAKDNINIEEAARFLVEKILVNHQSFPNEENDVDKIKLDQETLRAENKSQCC
UniProt Q15014, whole entry: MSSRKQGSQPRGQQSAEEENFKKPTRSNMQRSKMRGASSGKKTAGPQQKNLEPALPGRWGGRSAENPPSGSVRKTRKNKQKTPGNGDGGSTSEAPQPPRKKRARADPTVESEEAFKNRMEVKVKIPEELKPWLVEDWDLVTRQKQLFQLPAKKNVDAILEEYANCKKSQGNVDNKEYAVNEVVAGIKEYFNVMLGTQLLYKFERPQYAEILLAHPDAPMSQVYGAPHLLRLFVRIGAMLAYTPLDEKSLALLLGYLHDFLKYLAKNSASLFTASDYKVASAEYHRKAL
UniProt Q13901: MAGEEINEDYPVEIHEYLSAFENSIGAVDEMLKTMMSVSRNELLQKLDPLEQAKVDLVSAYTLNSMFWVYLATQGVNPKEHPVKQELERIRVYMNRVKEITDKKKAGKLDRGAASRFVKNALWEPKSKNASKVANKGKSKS

Compound in this experiment: CN[C@@H]1C[C@H]2O[C@@](C)([C@@H]1OC)n1c3ccccc3c3c4c(c5c6ccccc6n2c5c31)C(=O)NC4 [staurosporine]
Description: log2 fold change of tryptic peptide abundance, ligand vs vehicle (limited proteolysis) (log2 ratio); higher = more trypsin-susceptible (destabilized). The following applies: ligand concentration: 20 uM; sample: K562 cleared lysate; digestion: 4 min, 22 C (HT-PELSA RT4min, Orbitrap Astral).
Consider “DSG2 (peptide sequence: HSTVQHSYS, peptide start residue: 1110) (UniProt Q14126)”, for which the log2 fold change is -0.516.
On to “BOP1 (peptide sequence: GDYLAVVLATQGHTQVLIHQLSR, peptide start residue: 546) (UniProt Q14137)”, for which the log2 fold change was -0.393.
In the case of “PEX6 (peptide sequence: IPSVSWHDVGGLQEVKK, peptide start residue: 699) (UniProt Q13608)” it was 1.79; in that of “GIT2 (peptide sequence: QQGSSLSGSKDNVELILK, peptide start residue: 357) (UniProt Q14161)”, 0.408; in that of “FAM53B (peptide sequence: RAEPAAAWR, peptide start residue: 390) (UniProt Q14153)”, 0.403.
In the case of “UniProt Q15006 (peptide sequence: ALFGLYMSASHIASNPK, peptide start residue: 228)” it was 0.432.
In the case of “HES1 (peptide sequence: INESLSQLK, peptide start residue: 50) (UniProt Q14469)” it was 0.379.
In the case of “PPIG (peptide sequence: EFLLSMANR, peptide start residue: 107) (UniProt Q13427)”, the log2 fold change was -0.382.
With “ADAM9 (peptide sequence: QPQQFPSRPPPPQPK, peptide start residue: 782) (UniProt Q13443)” the figure was -0.468.
In the case of “UniProt Q14593 (peptide sequence: GPPSVAPLPAGIGR, peptide start residue: 7)” it was -0.0234; in that of “SNX17 (peptide sequence: SGDSGGSAYVAYNIHVNGVLHCR, peptide start residue: 12) (UniProt Q15036)”, -0.516; in that of “UniProt Q13155 (peptide sequence: VLSTVHTHSSVK, peptide start residue: 148)”, -0.641.
With “UniProt Q15004 (peptide sequence: KACPLQPDHTNDEKE, peptide start residue: 97)” the figure was -0.219; with “URB2 (peptide sequence: ASLQPGMR, peptide start residue: 1491) (UniProt Q14146)”, 0.497; with “STX3 (peptide sequence: HIEEDEVR, peptide start residue: 101) (UniProt Q13277)”, -0.318.
“UniProt Q14767 (peptide sequence: GSCSRPQLCVCR, peptide start residue: 199)”: the log2 fold change was 0.392.
As for “PSME4 (peptide sequence: ALPGVDPNDFSK, peptide start residue: 488) (UniProt Q14997)”, the log2 fold change amounted to 0.441.
In the case of “MEF2D (peptide sequence: LDTWTLK, peptide start residue: 515) (UniProt Q14814)” it was -0.199; in that of “BIRC2 (peptide sequence: TQIPLQAR, peptide start residue: 500) (UniProt Q13490)”, 0.465.
With “RAB32 (peptide sequence: VHLPNGSPIPAVLLANK, peptide start residue: 128) (UniProt Q13637)” the figure was 0.663.
In the case of “SELENBP1 (peptide sequence: IYVVDVGSEPR, peptide start residue: 104) (UniProt Q13228)” it was -0.334.
As for “MAD2L1 (peptide sequence: WQFDIECDKTAK, peptide start residue: 100) (UniProt Q13257)”, the log2 fold change turned out to be 0.142.
With “UBE4A (peptide sequence: ELNDEER, peptide start residue: 469) (UniProt Q14139)” the figure was -0.356.
In the case of “MORF4L2 (peptide sequence: QKTPGNGDGGSTSEAPQPPRK, peptide start residue: 80) (UniProt Q15014)”, the log2 fold change was -0.574.
In the case of “RASA3 (peptide sequence: EKQEAAVPLVR, peptide start residue: 330) (UniProt Q14644)” it was 0.898; in that of “TP53BP2 (peptide sequence: VPPPVPTKPK, peptide start residue: 498) (UniProt Q13625)”, 0.265; in that of “GNL2 (peptide sequence: TYKIDSWENAEDFLEK, peptide start residue: 409) (UniProt Q13823)”, 0.464.
With “C1D (peptide sequence: NELLQKLDPLEQAK, peptide start residue: 41) (UniProt Q13901)” the figure was 0.476.

For the origin of these results see the supplement of paper PMC12819154, “High-throughput peptide-centric local stability assay extends protein–ligand identification to membrane proteins, tissues and bacteria” (Nature Structural & Molecular Biology, 2025).
